{"source": "PubChem BioAssay (EPA / NIEHS)", "note": "Values joined by “and” are separate entries in the source; they are usually repeats but may differ in a detail not shown here. Equal entries are not always repeated. The shares of active, inactive and inconclusive entries below differ from those in the screen. Where the call is inconclusive, the potency comes from a doubtful curve fit. Active and inactive are the calls of the source. Rule for the calls: active = hit-call score of the fitted dose curve at least 0.9, where 1 is the maximum; inconclusive = response in the unintended direction; inactive = score below 0.9."}
{"read-out": "ABC Transporter (ABCB11), ABCB11 (gene 8647)", "test": "CLD_ABCB11_48hr: CellzDirect (CLD) Gene Expression Assay for ABC Transporter (ABCB11) at 48 hours (AID 2283697)", "protocol": "CLD_48hr is a cell-based, multiplexed-readout assay that uses hepatocyte, a human liver primary cell, with measurements taken at 48 hours after chemical dosing in a 96-well plate.CLD_ABCB11_48hr is one of 16 assay component(s) measured or calculated from the CLD_48hr assay. It is designed to make measurements of mRNA induction, a form of inducible reporter, as detected with chemiluminescence signals by Quantitative Nuclease Protection Assay (qNPA) technology.Data from the assay component CLD_ABCB11_48hr was analyzed at the endpoint, CLD_ABCB11_48hr, in the positive analysis fitting direction relative to DMSO as the negative control and baseline of activity. Using a type of inducible reporter, gain-of-signal activity can be used to understand changes in the reporter gene as they relate to the gene ABCB11. Furthermore, this assay endpoint can be referred to as a primary readout. To generalize the intended target to other relatable targets, this assay endpoint is annotated to the transporter intended target family, where subfamily is ABC transporter.\nHuman hepatocyte cultures were treated daily for two consecutive days with fresh dosing solutions containing appropriate concentrations of the 320 ToxCast chemicals (chemical identities were blinded to CellzDirect and other ToxCast collaborators), vehicle control (0.2% DMSO), and positive control inducers as summarized in Table 1. Due to the large number of treatment groups and chemicals examined, the ToxCast chemicals were divided into two groups (spanning two independent cultures of hepatocytes from separate donor preparations (Hu778: ToxCast plates 1 and 2; Hu776: ToxCast plates 3 and 4). Each preparation of human hepatocyte cultures was treated with respective vehicle control, medium only control, set of six positive controls/reference chemicals for the five hepatic receptor pathways, and a subset of eight of the ToxCast chemicals (indoxacarb, pyrithiobac-sodium, norflurazon, cyhalofop-butyl, methomyl, thiram, acetochlor, and propiconazole). These replicate data, coupled with internal replicates designed within the blinded ToxCast chemical library, provided additional data to evaluate interindividual differences between hepatocyte preparations and their potential impact on chemical profiles.Cell morphology and integrity were evaluated using phase-contrast microscopy as an indicator of hepatocyte cell health (Tyson & Green, 1987). Cultures for each treatment group (i.e., media, vehicle [0.2% DMSO], positive control inducers [multiple concentrations], and the ToxCast chemicals [multiple concentrations]) were observed and cell morphology was assessed relative to vehicle control cultures at each harvest time point (0, 6, 24, or 48 h). […] Images were evaluated at the conclusion of the study to assess changes in cell integrity and account for the effects of chemical exposure on uncharacteristic changes in concentration-dependent gene expression profiles. The results from these determinations of apparent cytotoxicity were annotated (yes/no) alongside the corresponding qNPA data for reference.At the conclusion of each treatment period, hepatocyte cultures (96-well) were washed with 1 volume of HBSS, lysed by addition of 25 ul ArrayPlate lysis buffer (HTG, Tucson, AZ), and 70 ul/well of Denaturation Oil, denatured by incubation at 95C for 10 min, and frozen at approximately -70C until analysis by nuclease protection assay (qNPA) (Roberts et al., 2007). For qNPA analysis, cell lysates were thawed at 50C for approximately 30 min, qNPA probes were added, and samples were incubated at 95C for 10 min to begin the detection process by denaturing the target RNA, dissociating the duplexes and secondary structure hybridization. At the conclusion of the hybridization period, S1 nuclease reagent was added to each sample to digest all nonprotected nucleotides at 50C for 60-90 min. […]"}
{"smiles": "CCOP(=S)(OCC)Oc1cc(C)nc(C(C)C)n1", "AC50": "inconclusive: 14.6 µM"}
{"smiles": "C[Si](Cn1cncn1)(c1ccc(F)cc1)c1ccc(F)cc1", "AC50": "inconclusive: 3.56 µM"}
{"smiles": "N#Cc1c[nH]cc1-c1cccc2c1OC(F)(F)O2", "AC50": "inconclusive: 9.61 µM"}
{"smiles": "CC(COc1ccc(Oc2ccccc2)cc1)Oc1ccccn1", "note": "(stereo not given)", "outcome": "inactive"}
{"smiles": "O=C(O)c1cc(Oc2ccc(C(F)(F)F)cc2Cl)ccc1[N+](=O)[O-]", "AC50": "inconclusive: 0.00126 µM"}
{"smiles": "CCS(=O)(=O)c1cccnc1S(=O)(=O)NC(=O)Nc1nc(OC)cc(OC)n1", "outcome": "inactive"}
{"smiles": "C#CC(C)(C)NC(=O)c1cc(Cl)cc(Cl)c1", "AC50": "inconclusive: 20 µM"}
{"smiles": "CON=C(C(=O)OC)c1ccccc1CON=C(C)c1cccc(C(F)(F)F)c1", "AC50": "inconclusive: 20 µM"}
{"smiles": "CCOP(=S)(OCC)Oc1ccc2c(C)c(Cl)c(=O)oc2c1", "outcome": "inactive"}
{"smiles": "CC(Oc1cccc(Cl)c1)C(=O)O", "note": "(stereo not given)", "AC50": "inconclusive: 0.0106 µM"}
{"smiles": "N#CN=C1SCCN1Cc1ccc(Cl)nc1", "outcome": "inactive"}
{"smiles": "CNC(=O)/C=C(\\C)OP(=O)(OC)OC", "outcome": "inactive"}
{"smiles": "CCCC1COC(Cn2cncn2)(c2ccc(Cl)cc2Cl)O1", "note": "(stereo not given)", "AC50": "inconclusive: 19.3 µM"}
{"smiles": "CCOP(=S)(OCC)OC(Cl)C(Cl)(Cl)Cl", "note": "(stereo not given)", "AC50": "inconclusive: 20 µM"}
{"smiles": "CC1(C)CON(Cc2ccccc2Cl)C1=O", "AC50": "inconclusive: 3.86 µM"}
{"smiles": "Cc1nn(-c2cc(NS(C)(=O)=O)c(Cl)cc2Cl)c(=O)n1C(F)F", "AC50": "inconclusive: 20 µM"}
{"smiles": "COc1cc(Cl)c(OC)cc1Cl", "AC50": "inconclusive: 20 µM"}
{"smiles": "O=C(O)c1nc(Cl)ccc1Cl", "AC50": "inconclusive: 20 µM and active: 6.55 µM"}
{"smiles": "COP(=O)(OC)OC=C(Cl)Cl", "outcome": "inactive"}
{"smiles": "CCOP(=O)(OCC)Oc1cc(C)nc(C(C)C)n1", "outcome": "inactive"}
{"smiles": "COP(=O)(OC)C(O)C(Cl)(Cl)Cl", "note": "(stereo not given)", "outcome": "inactive"}
{"smiles": "CCc1cccc(C)c1N(C(=O)CCl)C(C)COC", "note": "(stereo not given)", "AC50": "inconclusive: 20 µM"}
{"smiles": "COC(=O)N(C(=O)N1CO[C@@]2(C(=O)OC)Cc3cc(Cl)ccc3C2=N1)c1ccc(OC(F)(F)F)cc1", "AC50": "inconclusive: 15.9 µM"}
{"smiles": "Cc1cc(C)nc(NC(=O)NS(=O)(=O)c2ccccc2C(=O)OC2COC2)n1", "outcome": "inactive"}
{"smiles": "CCOc1nc(C(Cl)(Cl)Cl)ns1", "outcome": "inactive"}
{"smiles": "CCNc1nc(Cl)nc(NC(C)(C)C#N)n1", "AC50": "inconclusive: 37.6 µM"}
{"smiles": "C#CCC1=C(C)C(OC(=O)C2C(C=C(C)C)C2(C)C)CC1=O", "note": "(stereo not given)", "AC50": "inconclusive: 20 µM"}
{"smiles": "COc1cc(OC)nc(Sc2cccc(Cl)c2C(=O)O)n1", "outcome": "inactive"}
{"smiles": "CC(C)[C@H](C(=O)O[C@H](C#N)c1cccc(Oc2ccccc2)c1)c1ccc(Cl)cc1", "AC50": "inconclusive: 20 µM"}
{"smiles": "CN(C)C(=O)Nc1cccc(C(F)(F)F)c1", "outcome": "inactive"}
{"smiles": "CC(C)N(C(=O)SCC(Cl)=C(Cl)Cl)C(C)C", "AC50": "inconclusive: 20 µM"}
{"smiles": "CCOP(=S)(OCC)SCCSCC", "AC50": "inconclusive: 20 µM"}
{"smiles": "CC1COC(Cn2cncn2)(c2ccc(Oc3ccc(Cl)cc3)cc2Cl)O1", "note": "(stereo not given)", "AC50": "inconclusive: 0.749 µM"}
{"smiles": "CC(C)=CC1C(C(=O)OCc2coc(Cc3ccccc3)c2)C1(C)C", "note": "(stereo not given)", "AC50": "inconclusive: 2.55 µM"}
{"smiles": "CCOP(=S)(OCC)Oc1nc(Cl)n(C(C)C)n1", "AC50": "inconclusive: 20 µM"}
{"smiles": "N#Cc1c(Cl)cccc1Cl", "AC50": "inconclusive: 20 µM"}
{"smiles": "CCCCC(C#N)(Cn1cncn1)c1ccc(Cl)cc1", "note": "(stereo not given)", "AC50": "inconclusive: 20 µM"}
{"smiles": "CCCCOCN(C(=O)CCl)c1c(CC)cccc1CC", "AC50": "inconclusive: 20 µM"}
{"smiles": "COP(=O)(NC(C)=O)SC", "note": "(stereo not given)", "outcome": "inactive"}
{"smiles": "CC1=NNC(=O)N(/N=C/c2cccnc2)C1", "outcome": "inactive"}
